Source: paper PMC5085165
Results are given in words; binding and its absence hold for the method and conditions named. In cells and extracts the contact can be indirect. Some binding calls cover weakened binding; strength is not graded here.

Target: p62 (mouse (endogenous in MEFs)) (UniProt Q64337)
Test: co-IP; WT MEFs lysed, immunoprecipitated with an anti-p62 antibody or control IgG, Western blot with an anti-GEF-H1 antibody; also after starvation-induced autophagy (interaction increased)

binding: binds
B1: GEF-H1 (protein, UniProt Q60875 1-985)
chain: MSRIESLTRARIDRSKEQATKTREKEKMKEAKDARYTNGHLFTTISVSGMTMCYACNKSITAKEALICPTCNVTIHNRCKDTLANCTKVKQKQQKAALLRNNTALQSVSLRSKTTTRERPTSAIYPSDSFRQSLLGSRRGLSSLSLAKSVSTTNIAGHFNDESPLGLRQILSQSTDSLNMRNRTLSVESLIDEGVEVFYNELMSDFEMDEKDFEADSWSLAVDSSFLQQHKKEVMKKQDVIYELIQTELHHVRTLKIMTRLFRTGMLEELQMEPEVVQGLFPCVDELSDIHTRFLNQLLERRRQALCPGSTRNFVIHRLGDLLISQFSGSNAEQMRKTYSEFCSRHTKALKLYKELYARDKRFQQFIRKMTRSAVLKRHGVQECILLVTQRITKYPVLINRILQNSHGVEEEYQDLASALGLVKELLSNVDQDVHELEKEARLQEIYNRMDPRAQTPVPGKGPFGRDELLRRKLIHEGCLLWKTATGRFKDVLLLLMTDVLVFLQEKDQKYIFTSLDKPSVVSLQNLIVRDIANQAKGMFLISSGPPEMYEVHAASRDDRTTWIRVIQQSVRLCPSREDFPLIETEDKAYLRRIKTKLQQKNQALVELLQKNVELFAEMVHFQALKAGFVGMPPPALPRGLFRLESFESLRGERLLKDALREVEGLKDLLLGPCVDLPMTSREPALPLDSDSGSCPGVTANGEARTFNGSIELCRADSDSSQKDRNGNQLRSPQEEVLQPLINLYGLLHGLQAVVVQQERLMEALFPEGPERWEKLSRANSRDGEAGRAAVASVTPEKQATELALLQRQHTLLQEELRRCQRLGEERATEAGSLEARLRESEQARALLEREAEEIRRQLAALGQNEPLPAEAPWARRPLDPRRRSLPAGDALYLSFNPPQPSRGHDRLDLPVTVRSLHRPFDDREAQELGSPEDRLQDSSDPDTGSEEEVSSRLSPPHSPRDFTRMQDIPEETESRDGEPTASES
